# Results reported in patent US7544689B2, “Purine derivatives” (Cyclacel Limited, priority 2002, dated 2009).
# Test system: representative panel of human transformed tumour cell lines
# Assay: Average anti-proliferative activity in tumour cell line panel
# Format: cell-based
# Details: read-out: average anti-proliferative IC50
smiles,measurement,value
"CC[C@H](CO)Nc1nc(NCc2ccccc2)c2ncn(C(C)C)c2n1 [Roscovitine, reference compound]",IC50,~10 µM
